Source: the supplement of paper PMC10849652
The list shows a part of the results.

Chains of the proteins cited; added tags and fusions are not shown. Lines headed by an entry give the natural chain unless they say otherwise; changes in a name come on top.
UniProt Q05BV3: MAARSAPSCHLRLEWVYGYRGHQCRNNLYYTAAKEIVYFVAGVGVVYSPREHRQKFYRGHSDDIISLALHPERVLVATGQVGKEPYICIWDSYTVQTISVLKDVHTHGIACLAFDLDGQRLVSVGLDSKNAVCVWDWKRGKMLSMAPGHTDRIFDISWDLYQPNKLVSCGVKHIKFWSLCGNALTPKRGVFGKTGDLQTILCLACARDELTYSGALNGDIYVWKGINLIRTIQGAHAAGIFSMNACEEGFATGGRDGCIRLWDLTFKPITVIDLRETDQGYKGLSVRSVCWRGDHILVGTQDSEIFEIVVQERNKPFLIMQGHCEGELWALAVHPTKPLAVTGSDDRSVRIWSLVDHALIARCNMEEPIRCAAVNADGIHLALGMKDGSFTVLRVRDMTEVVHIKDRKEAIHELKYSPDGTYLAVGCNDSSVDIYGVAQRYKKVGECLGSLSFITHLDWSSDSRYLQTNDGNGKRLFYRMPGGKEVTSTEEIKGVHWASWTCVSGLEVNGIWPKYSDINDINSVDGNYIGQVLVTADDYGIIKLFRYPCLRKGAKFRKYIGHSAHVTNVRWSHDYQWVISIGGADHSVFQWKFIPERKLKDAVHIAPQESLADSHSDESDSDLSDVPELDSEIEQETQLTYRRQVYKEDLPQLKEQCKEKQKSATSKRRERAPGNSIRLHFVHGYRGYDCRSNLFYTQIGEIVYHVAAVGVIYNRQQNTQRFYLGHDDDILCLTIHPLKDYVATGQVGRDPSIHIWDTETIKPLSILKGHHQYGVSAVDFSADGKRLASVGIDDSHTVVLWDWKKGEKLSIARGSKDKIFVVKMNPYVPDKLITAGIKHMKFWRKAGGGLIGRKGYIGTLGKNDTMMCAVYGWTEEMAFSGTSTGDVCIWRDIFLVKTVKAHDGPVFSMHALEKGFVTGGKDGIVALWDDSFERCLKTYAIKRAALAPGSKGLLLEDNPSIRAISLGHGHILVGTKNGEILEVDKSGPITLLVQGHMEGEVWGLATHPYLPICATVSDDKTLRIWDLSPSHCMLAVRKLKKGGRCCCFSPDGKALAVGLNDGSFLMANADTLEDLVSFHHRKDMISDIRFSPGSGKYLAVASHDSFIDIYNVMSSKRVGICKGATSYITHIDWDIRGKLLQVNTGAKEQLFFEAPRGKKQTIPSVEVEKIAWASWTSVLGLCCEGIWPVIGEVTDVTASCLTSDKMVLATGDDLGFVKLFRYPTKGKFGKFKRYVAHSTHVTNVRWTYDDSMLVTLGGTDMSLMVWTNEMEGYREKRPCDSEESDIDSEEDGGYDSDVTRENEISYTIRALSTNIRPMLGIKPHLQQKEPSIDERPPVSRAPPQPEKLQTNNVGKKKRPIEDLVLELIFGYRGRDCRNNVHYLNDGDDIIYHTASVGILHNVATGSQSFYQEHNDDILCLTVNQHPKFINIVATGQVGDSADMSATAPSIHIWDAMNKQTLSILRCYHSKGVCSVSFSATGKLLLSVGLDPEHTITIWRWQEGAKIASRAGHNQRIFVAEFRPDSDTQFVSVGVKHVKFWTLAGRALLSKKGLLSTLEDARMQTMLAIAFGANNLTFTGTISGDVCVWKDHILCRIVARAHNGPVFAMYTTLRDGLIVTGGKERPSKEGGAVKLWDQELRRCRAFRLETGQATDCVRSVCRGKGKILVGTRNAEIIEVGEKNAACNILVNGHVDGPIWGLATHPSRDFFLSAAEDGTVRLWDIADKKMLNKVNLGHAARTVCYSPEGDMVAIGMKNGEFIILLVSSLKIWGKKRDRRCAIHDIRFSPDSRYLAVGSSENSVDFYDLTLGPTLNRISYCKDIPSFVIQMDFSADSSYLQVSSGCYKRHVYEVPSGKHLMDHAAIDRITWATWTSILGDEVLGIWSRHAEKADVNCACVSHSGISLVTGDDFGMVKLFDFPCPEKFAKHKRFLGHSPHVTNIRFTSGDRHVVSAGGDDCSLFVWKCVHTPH
UniProt P0DP91, whole entry, looked up: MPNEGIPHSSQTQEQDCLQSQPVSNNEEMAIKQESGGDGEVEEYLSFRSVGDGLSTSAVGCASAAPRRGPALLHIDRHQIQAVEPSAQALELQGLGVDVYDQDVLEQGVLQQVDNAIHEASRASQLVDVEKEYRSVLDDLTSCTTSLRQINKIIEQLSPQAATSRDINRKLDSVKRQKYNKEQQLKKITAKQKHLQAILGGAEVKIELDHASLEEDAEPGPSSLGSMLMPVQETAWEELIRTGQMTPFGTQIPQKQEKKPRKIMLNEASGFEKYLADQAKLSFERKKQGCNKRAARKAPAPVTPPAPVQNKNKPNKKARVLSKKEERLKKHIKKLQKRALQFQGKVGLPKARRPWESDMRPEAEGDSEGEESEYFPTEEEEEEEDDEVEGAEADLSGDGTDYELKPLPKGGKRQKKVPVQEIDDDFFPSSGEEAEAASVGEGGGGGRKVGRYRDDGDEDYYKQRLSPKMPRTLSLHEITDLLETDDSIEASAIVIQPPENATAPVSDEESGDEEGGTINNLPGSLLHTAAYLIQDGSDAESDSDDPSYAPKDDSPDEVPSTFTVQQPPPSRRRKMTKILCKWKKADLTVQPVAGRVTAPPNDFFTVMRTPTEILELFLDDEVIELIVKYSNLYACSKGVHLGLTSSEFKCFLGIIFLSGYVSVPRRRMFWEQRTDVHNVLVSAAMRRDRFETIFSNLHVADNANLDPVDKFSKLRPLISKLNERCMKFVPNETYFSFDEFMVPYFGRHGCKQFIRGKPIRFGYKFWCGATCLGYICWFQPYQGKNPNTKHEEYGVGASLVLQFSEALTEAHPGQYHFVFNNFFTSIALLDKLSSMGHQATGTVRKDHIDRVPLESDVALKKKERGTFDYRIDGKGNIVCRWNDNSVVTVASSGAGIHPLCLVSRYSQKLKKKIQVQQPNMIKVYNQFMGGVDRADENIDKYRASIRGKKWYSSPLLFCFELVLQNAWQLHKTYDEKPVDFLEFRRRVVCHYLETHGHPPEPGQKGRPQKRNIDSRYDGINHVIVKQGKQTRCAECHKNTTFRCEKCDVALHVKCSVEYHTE
UniProt P50548: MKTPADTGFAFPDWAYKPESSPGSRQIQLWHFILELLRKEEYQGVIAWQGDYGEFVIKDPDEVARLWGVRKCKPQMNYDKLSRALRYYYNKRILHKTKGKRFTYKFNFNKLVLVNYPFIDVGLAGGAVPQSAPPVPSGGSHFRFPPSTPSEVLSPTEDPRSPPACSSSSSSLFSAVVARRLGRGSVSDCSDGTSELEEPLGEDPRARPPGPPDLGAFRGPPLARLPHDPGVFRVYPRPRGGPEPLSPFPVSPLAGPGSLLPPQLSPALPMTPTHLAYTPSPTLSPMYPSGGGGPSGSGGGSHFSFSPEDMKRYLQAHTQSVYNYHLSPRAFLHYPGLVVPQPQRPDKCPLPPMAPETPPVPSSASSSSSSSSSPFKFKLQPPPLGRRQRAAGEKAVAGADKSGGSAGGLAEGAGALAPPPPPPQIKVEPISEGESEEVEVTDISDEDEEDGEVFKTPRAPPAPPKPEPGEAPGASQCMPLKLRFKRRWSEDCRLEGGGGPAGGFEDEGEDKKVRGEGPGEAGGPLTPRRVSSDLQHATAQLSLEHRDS
UniProt Q96JJ3: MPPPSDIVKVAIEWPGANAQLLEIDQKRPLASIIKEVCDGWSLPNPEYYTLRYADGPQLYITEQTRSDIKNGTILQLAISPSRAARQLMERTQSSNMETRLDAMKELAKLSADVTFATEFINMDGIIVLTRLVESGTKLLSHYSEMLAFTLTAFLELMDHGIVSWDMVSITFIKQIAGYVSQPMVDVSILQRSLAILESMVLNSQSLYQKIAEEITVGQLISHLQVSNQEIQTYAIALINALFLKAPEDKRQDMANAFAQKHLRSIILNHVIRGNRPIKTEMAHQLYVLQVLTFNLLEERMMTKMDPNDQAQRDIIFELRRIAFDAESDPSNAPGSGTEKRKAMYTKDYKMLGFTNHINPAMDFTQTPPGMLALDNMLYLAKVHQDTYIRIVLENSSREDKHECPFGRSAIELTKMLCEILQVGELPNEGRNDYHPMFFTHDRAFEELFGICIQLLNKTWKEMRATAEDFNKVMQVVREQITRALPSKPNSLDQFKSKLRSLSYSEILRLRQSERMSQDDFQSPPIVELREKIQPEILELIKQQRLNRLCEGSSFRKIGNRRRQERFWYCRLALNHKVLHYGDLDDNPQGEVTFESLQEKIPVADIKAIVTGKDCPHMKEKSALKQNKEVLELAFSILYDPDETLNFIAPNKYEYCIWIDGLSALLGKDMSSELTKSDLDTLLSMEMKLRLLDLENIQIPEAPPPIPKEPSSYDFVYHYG
UniProt Q9Y6I3: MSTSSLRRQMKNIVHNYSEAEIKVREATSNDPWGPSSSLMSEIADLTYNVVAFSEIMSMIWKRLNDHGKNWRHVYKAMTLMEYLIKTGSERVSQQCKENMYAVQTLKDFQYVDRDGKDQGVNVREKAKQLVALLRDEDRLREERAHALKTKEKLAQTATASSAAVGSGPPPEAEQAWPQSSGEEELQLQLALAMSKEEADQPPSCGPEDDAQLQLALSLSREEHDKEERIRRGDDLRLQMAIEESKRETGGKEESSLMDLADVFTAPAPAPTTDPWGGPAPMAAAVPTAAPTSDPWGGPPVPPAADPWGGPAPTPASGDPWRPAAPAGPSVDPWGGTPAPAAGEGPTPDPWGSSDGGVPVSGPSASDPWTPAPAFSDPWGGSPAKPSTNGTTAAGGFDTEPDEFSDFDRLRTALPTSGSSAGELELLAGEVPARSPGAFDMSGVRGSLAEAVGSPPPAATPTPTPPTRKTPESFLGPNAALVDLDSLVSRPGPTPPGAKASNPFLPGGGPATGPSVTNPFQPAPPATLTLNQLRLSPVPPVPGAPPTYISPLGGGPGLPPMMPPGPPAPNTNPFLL
UniProt Q9H5J4: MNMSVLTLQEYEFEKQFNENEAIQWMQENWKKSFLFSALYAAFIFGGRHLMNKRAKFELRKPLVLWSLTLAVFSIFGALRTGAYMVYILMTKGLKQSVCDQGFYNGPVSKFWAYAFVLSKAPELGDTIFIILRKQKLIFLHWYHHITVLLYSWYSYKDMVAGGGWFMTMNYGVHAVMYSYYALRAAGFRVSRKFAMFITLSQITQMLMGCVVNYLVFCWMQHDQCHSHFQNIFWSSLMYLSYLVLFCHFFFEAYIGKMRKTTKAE
UniProt O75354: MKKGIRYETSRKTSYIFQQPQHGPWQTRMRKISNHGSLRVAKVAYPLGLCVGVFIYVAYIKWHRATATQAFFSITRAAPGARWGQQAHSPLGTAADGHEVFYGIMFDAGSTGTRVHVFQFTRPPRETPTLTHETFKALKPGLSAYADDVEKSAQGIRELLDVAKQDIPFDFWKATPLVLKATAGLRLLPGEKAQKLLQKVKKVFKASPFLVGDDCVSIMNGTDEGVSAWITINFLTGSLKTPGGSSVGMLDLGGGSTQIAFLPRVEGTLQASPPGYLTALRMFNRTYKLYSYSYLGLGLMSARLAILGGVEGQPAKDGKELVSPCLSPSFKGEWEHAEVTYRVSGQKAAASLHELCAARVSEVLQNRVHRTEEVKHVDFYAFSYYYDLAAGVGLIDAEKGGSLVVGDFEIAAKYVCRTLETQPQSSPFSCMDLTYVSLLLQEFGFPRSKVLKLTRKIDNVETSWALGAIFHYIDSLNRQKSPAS
UniProt Q8N5X7: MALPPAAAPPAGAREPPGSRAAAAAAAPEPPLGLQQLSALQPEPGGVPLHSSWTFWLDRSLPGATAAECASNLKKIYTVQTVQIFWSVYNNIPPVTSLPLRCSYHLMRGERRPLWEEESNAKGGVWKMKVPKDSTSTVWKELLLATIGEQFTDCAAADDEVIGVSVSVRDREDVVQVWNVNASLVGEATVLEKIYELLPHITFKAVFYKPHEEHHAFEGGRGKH
UniProt Q9HCM4: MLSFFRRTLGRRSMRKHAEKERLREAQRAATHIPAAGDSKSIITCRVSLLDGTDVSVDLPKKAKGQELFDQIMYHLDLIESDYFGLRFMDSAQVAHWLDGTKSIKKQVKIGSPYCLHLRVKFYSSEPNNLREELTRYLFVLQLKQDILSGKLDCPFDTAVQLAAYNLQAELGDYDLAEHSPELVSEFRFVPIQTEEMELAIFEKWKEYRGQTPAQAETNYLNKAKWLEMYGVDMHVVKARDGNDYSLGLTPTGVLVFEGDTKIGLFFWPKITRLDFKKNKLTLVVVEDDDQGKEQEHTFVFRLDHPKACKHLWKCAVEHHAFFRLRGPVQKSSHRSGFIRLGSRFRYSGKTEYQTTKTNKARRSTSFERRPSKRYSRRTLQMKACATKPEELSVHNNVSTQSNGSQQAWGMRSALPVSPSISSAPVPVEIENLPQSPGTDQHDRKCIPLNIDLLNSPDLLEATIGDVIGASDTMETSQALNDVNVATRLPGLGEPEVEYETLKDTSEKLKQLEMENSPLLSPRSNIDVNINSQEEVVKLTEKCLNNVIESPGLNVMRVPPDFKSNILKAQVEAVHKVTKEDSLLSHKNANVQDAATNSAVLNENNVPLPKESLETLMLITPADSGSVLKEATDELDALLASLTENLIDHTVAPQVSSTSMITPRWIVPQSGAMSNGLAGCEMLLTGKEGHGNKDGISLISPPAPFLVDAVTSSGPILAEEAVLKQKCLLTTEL

Key:
Assay in all cases: log2 fold change, soluble protein after heating vs DMSO (PISA); higher = thermal stabilisation; K562 lysate, 10 uM; active = over 0.2 and 3.5 SD of the protein, either way, in both replicates (recomputed)
[1] = compound: C1=CC=C(C=C1)[C@H](COC2=CC3=C(C=C2)NC(=O)N3)NC(=O)C4=CC=CN(C4=O)CC5=CC(=C(C=C5)F)F
Summary of the method: (§1)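 Following dounce homogenisation of K562 pellets in PBS pH 7.4 with 1 mM MgCl2, crude extract at 1 mg/mL protein was incubated for 30 min with 10 μM compound. Aliquots were then heated for 3 min over 48°C-58°C and pooled, NP-40 was added to 0.5% at 4°C, and soluble protein was recovered as the supernatant at 21,000xg for 90 min. Channel-sum-equalised TMTpro 16plex LC-MS/MS quantified this protein. Each value, from duplicates, is a log-two fold change in thermal stability relative to solvent controls.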

[2] = compound: CC1=C(SC2=C1C(=N[C@H](C3=NN=C(N32)C)CC(=O)N)C4=CC=C(C=C4)Cl)C
Summary of the method: as §1

[3] = compound: c1ccc([C@@H]2C[C@H]2NC2CCNCC2)cc1
Summary of the method: as §1

[4] = compound: Cc1sc2c(c1C)C(c1ccc(Cl)cc1)=N[C@@H](CC(=O)OC(C)(C)C)c1nnc(C)n1-2
Summary of the method: as §1

[5] = compound: CC1=C2C(=CC=C1)N=C(N(C2=O)C3=CC=CC=C3C)CN4C=NC5=C(N=CN=C54)N
Summary of the method: as §1

## ERCC8 (UniProt Q13216)
[1]
  log2 fold change: inactive: 0.009
[2]
  log2 fold change: inactive: -0.018
[3]
  log2 fold change: inactive: -0.028

## ERG28 (UniProt Q9UKR5)
[1]
  log2 fold change: inactive: 0.001
[2]
  log2 fold change: inactive: -0.053
[4]
  log2 fold change: inactive: -0.08
[3]
  log2 fold change: inactive: 0.277

## EML5 isoform 5 (UniProt Q05BV3)
[4]
  log2 fold change: inactive: -0.14
[3]
  log2 fold change: inactive: -0.168

## EIF3G (UniProt K7ENA8)
[1]
  log2 fold change: inactive: -0.067
[2]
  log2 fold change: inactive: 0.056
[4]
  log2 fold change: inactive: -0.194
[3]
  log2 fold change: inactive: 0.013

## EIF3B (UniProt C9JQN7)
[1]
  log2 fold change: inactive: -0.009
[2]
  log2 fold change: inactive: 0.009
[3]
  log2 fold change: inactive: -0.1

## EPC1 (UniProt Q9H2F5)
[1]
  log2 fold change: inactive: -0.098
[2]
  log2 fold change: inactive: -0.109
[3]
  log2 fold change: inactive: -0.103

## EPG5 (UniProt Q9HCE0)
[1]
  log2 fold change: inactive: 0.034
[2]
  log2 fold change: inactive: 0.061
[4]
  log2 fold change: inactive: -0.144
[3]
  log2 fold change: inactive: 0.006

## EIF4G3, A0A0A0MSA7
[4]
  log2 fold change: inactive: -0.023

## EIF3I (UniProt Q5TFK1)
[3]
  log2 fold change: inactive: 0.059

## EIF4B (UniProt F8VP89)
[1]
  log2 fold change: inactive: 0.01
[2]
  log2 fold change: inactive: 0.049
[4]
  log2 fold change: inactive: 0.114

## ERCC6 (UniProt P0DP91)
[1]
  log2 fold change: inactive: 0
[2]
  log2 fold change: inactive: -0.071
[4]
  log2 fold change: inactive: 0.179

## ELOF1 (UniProt P60002)
[1]
  log2 fold change: inactive: 0
[2]
  log2 fold change: inactive: -0.136
[4]
  log2 fold change: inactive: 0.038
[3]
  log2 fold change: inactive: -0.14

## ERF (UniProt P50548)
[5]
  log2 fold change: inactive: -0.11
[4]
  log2 fold change: inactive: -0.107

## EPB41 isoform 4 (UniProt P11171)
[3]
  log2 fold change: inactive: 0.106

## ELMO2 (UniProt Q96JJ3)
[5]
  log2 fold change: inactive: 0.034
[4]
  log2 fold change: inactive: -0.019
[3]
  log2 fold change: inactive: 0.05

## EPN1 isoform 3 (UniProt Q9Y6I3)
[4]
  log2 fold change: inactive: -0.127
[3]
  log2 fold change: inactive: -0.028

## EPS8L2 (UniProt Q9H6S3)
[1]
  log2 fold change: inactive: 0.124
[2]
  log2 fold change: inactive: -0.09
[4]
  log2 fold change: inactive: 0.008
[3]
  log2 fold change: inactive: 0.037

## EPS15L1 (UniProt M0QY01)
[5]
  log2 fold change: inactive: 0.008
[4]
  log2 fold change: inactive: -0.12
[3]
  log2 fold change: inactive: -0.049

## EIF2AK3 (UniProt Q9NZJ5)
[4]
  log2 fold change: inactive: 0.025
[3]
  log2 fold change: inactive: 0.041

## ELOVL6 (UniProt Q9H5J4)
[5]
  log2 fold change: inactive: -0.149
[4]
  log2 fold change: inactive: 0.238
[3]
  log2 fold change: inactive: -0.009

## ENTPD6 (UniProt O75354)
[1]
  log2 fold change: inactive: 0.236
[2]
  log2 fold change: inactive: 0.052
[4]
  log2 fold change: inactive: 0.029
[3]
  log2 fold change: inactive: 0.054

## EMC1 (UniProt H7C5A2)
[4]
  log2 fold change: inactive: -0.128

## ELP5 isoform 2 (UniProt Q8TE02)
[3]
  log2 fold change: inactive: 0.054

## EIF4A1 (UniProt J3KS25)
[5]
  log2 fold change: inactive: 0.012

## EIF4E3 (UniProt Q8N5X7)
[5]
  log2 fold change: inactive: 0.116
[3]
  log2 fold change: inactive: -0.079

## EPB41L5 (UniProt Q9HCM4)
[1]
  log2 fold change: inactive: -0.003
[2]
  log2 fold change: inactive: 0.09
[3]
  log2 fold change: inactive: 0.092

## EPB41L2 isoform 4 (UniProt O43491)
[1]
  log2 fold change: inactive: -0.199
[2]
  log2 fold change: inactive: 0.252
[3]
  log2 fold change: inactive: -0.028

## ELAVL4 (UniProt P26378)
[5]
  log2 fold change: inactive: 0.018
[4]
  log2 fold change: inactive: -0.079
[3]
  log2 fold change: inactive: 0.095

## ELOVL7 (UniProt A1L3X0)
[1]
  log2 fold change: inactive: -0.028
[2]
  log2 fold change: inactive: 0.025
[4]
  log2 fold change: inactive: 0.058

## EIF3J isoform 2 (UniProt O75822)
[5]
  log2 fold change: inactive: -0.037
[3]
  log2 fold change: inactive: 0.14
